Results are given in words; binding and its absence hold for the method and conditions named. Some results given as binding are weak or reduced against the parent protein; the word gives no strength.
T1: Recombinant human serum amyloid A isoform 1.1 (human), P0DJI8
T1 chain: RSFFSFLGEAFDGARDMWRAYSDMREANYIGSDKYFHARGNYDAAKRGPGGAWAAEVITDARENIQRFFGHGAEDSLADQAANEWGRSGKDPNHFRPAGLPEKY

Chains of the proteins cited; added tags and fusions are not shown. Residues count along the entry.
UniProt P04114, residues 28-4563: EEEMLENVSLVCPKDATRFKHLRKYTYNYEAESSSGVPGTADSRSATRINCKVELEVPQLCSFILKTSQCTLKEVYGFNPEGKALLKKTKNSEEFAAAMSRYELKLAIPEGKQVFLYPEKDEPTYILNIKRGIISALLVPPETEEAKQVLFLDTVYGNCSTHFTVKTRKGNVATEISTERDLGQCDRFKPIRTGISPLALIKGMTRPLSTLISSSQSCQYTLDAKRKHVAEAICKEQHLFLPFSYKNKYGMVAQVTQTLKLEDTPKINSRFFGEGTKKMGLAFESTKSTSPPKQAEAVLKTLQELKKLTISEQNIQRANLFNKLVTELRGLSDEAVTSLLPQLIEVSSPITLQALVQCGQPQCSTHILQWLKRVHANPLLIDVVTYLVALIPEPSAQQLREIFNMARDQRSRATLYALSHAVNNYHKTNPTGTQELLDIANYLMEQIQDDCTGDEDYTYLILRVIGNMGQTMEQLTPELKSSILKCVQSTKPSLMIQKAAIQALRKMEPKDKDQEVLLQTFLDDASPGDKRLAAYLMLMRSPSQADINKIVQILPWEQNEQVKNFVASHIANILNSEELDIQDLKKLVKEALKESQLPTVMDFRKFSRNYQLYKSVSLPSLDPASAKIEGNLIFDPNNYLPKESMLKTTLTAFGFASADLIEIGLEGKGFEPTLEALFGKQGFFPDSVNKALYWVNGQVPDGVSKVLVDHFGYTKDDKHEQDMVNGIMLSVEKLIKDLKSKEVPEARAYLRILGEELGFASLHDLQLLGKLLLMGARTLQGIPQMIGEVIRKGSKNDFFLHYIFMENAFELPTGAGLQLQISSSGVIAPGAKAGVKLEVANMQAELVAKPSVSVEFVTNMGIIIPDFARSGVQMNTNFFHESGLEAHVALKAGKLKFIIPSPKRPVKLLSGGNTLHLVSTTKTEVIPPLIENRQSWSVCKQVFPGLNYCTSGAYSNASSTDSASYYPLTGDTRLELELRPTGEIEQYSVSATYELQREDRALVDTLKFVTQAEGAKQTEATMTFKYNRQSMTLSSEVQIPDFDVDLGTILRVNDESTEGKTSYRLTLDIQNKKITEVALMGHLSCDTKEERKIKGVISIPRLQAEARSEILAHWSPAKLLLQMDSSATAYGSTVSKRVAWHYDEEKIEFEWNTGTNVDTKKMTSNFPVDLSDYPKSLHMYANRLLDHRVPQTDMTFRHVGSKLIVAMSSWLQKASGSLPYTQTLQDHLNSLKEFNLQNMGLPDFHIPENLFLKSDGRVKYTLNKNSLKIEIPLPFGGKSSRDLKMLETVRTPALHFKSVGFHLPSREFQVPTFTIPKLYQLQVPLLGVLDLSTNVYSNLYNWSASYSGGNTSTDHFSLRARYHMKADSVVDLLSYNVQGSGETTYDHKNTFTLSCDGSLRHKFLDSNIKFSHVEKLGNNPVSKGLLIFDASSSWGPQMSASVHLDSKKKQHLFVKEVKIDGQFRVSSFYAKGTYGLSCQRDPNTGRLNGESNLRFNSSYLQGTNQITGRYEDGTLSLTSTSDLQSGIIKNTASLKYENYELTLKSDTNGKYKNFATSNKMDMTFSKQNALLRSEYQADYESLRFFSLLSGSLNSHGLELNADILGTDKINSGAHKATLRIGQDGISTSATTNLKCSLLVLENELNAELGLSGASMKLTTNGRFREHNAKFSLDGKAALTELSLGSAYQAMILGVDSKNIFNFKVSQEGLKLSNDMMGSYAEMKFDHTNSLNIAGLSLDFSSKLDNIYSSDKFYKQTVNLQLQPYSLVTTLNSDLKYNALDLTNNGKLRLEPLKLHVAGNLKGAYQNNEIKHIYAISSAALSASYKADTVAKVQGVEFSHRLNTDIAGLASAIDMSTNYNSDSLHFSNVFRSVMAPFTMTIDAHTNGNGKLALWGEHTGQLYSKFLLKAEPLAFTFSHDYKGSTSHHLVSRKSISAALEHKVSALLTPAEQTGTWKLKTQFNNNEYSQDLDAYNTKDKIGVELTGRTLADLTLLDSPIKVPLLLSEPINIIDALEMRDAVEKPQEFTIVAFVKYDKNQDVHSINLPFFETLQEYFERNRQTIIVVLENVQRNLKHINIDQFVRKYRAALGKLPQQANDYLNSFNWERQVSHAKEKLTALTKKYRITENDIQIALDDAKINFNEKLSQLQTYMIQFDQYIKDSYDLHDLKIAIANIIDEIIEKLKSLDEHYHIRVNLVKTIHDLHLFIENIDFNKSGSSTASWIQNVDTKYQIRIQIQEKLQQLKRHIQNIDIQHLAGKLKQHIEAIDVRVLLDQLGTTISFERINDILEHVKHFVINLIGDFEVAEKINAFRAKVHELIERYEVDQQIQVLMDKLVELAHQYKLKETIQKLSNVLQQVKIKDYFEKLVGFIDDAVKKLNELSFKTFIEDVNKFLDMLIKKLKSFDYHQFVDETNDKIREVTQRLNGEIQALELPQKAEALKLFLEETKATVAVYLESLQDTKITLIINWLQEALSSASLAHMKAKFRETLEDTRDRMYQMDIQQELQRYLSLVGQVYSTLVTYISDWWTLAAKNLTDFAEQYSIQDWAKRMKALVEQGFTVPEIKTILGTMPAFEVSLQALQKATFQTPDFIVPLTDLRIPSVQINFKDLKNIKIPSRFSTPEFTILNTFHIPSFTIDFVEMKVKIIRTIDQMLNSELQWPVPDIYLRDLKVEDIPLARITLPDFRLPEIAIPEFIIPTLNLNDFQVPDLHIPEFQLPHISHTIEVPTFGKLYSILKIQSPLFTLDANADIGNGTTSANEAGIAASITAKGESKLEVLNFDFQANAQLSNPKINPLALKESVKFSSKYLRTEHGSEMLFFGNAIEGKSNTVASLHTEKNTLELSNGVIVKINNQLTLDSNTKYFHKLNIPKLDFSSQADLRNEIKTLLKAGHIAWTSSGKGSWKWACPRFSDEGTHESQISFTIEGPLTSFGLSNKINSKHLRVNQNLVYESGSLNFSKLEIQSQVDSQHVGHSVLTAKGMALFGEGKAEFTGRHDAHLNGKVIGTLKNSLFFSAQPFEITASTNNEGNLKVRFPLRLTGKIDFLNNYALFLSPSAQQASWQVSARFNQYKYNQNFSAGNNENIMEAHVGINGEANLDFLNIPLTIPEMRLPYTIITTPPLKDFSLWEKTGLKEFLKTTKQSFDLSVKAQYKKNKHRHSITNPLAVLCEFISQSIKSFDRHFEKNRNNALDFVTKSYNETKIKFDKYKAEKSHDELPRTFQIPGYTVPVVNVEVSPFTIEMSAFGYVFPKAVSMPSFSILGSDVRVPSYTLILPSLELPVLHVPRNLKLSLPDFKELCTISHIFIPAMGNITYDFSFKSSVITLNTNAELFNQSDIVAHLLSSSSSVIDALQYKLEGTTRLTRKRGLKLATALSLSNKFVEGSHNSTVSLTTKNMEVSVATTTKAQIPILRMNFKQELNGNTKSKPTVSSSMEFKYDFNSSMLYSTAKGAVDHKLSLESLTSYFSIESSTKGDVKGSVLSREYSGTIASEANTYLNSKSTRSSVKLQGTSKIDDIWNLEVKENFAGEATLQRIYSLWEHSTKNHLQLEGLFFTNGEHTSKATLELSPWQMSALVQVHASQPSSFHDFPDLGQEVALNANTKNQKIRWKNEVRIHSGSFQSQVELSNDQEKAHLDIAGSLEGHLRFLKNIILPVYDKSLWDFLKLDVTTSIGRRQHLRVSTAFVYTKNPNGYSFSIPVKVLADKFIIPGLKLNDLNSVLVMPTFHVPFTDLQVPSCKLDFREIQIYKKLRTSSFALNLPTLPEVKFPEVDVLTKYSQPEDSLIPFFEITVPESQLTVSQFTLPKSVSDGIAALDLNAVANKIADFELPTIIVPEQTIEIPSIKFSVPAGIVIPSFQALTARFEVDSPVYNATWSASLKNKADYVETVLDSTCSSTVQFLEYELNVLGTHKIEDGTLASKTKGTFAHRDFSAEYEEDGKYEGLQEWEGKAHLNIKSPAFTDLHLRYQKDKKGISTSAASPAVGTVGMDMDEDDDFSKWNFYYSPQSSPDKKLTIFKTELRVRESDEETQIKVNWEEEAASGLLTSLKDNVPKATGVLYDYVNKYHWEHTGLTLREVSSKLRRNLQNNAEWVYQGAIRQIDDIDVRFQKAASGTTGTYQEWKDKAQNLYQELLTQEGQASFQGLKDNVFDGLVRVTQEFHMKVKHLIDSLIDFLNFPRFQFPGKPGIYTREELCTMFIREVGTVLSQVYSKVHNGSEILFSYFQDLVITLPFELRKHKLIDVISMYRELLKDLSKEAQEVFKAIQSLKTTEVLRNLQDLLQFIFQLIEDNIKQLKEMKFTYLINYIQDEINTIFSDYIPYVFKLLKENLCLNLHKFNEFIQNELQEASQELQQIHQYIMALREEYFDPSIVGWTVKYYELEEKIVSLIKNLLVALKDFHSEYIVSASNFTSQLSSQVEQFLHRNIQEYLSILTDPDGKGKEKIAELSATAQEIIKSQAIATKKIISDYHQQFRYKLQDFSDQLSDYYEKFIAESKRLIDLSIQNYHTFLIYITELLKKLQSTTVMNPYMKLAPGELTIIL

B1: Recombinant human serum amyloid A isoform 1.1, P0DJI8 19-122 (protein)
chain: T1 chain
B2: Recombinant human serum amyloid A isoform 1.1 (protein, UniProt P0DJI8 19-122)
chain: T1 chain

Tests used:
[1] = target: T1, Recombinant human serum amyloid A …; assay: native gel or EMSA; lipid-free SAA on non-denaturing PAGE, Novex 4-20% Tris-glycine gels, 6 ug protein per lane, Tris-glycine buffer; both purified; conditions: remark: other sources report otherwise
[2] = target: apoB of human plasma LDL (human (endogenous in plasma LDL)) (UniProt P04114); assay: native gel or EMSA; hSAA1.1 mixed with human plasma LDL at 1:1 weight ratio of SAA to apoB; non-denaturing PAGE; only the binder purified

| Binder | binding [1] | binding [2] |
| --- | --- | --- |
| B1 | binds |  |
| B2 |  | no binding |

— publication PMC6557629
